Data set [1] is described as follows: Photochromic response on an optical bench (sensitivity, ΔOD at saturation, bleach rate) of polymer test squares. Conditions: for ΔOD@ SATURATION: UV exposure continued for 20 minutes; for ΔOD@ SATURATION / ΔOD/MIN SENSITIVITY: 1.5 times 10^-3 molal in polymer test square, 75° F. (23.9° C.); for ΔOD/MIN SENSITIVITY: first five seconds of UV exposure, expressed per minute; for Bleach Rate (T1/2): time for absorbance of activated form to reach one half the highest absorbance at room temperature (75° F., 23.9° C.) after removal of activating light.

Data set [2] is described as follows: Lambda max (visible) of the activated form in a diethylene glycol bis(allyl carbonate) composition. Conditions: wavelength of maximum absorption of the activated (colored) form in a diethylene glycol bis(allyl carbonate) composition.

Consider `CCC1(O)c2ccccc2-c2c1c1c(c3c2ccc2oc4ccccc4c23)OC(c2ccc(OC)cc2)(c2ccc(OC)cc2)C=C1` (stereo not drawn) [Example 1, 3,3-di(4-methoxyphenyl)-16-hydroxy-16-ethyl-16H-benzofuro[2',3':7,8]indeno[2',3':3,4]naphtho[1,2-b]pyran], for which, in data set [1], the “ΔOD@ SATURATION” value amounted to 0.12, the “ΔOD/MIN SENSITIVITY” value is 0.25 ΔOD/MIN and the “Bleach Rate (T1/2)” value was found to be 23 s. In data set [2], the “LAMBDA MAX (VISIBLE)” value is given as 597 nm.

On to `COc1ccc(C2(c3ccc(OC)cc3)C=Cc3c4c(c5ccccc5c3O2)-c2ccc3oc5ccccc5c3c2C4O)cc1` (stereo not drawn) [Example 2, 3,3-di(4-methoxyphenyl)-16-hydroxy-16H-benzofuro[2",3":6',7']indeno[3',2':4,3]naphtho[1,2-b]pyran], for which, in data set [1], the “ΔOD@ SATURATION” value was found to be 0.26, the “ΔOD/MIN SENSITIVITY” value is given as 0.19 ΔOD/MIN and the “Bleach Rate (T1/2)” value was found to be 70 s. Moreover, the “LAMBDA MAX (VISIBLE)” value in data set [2] is given as 574 nm.

With `CCC1(O)c2c3c(c4ccccc4c2-c2ccc4oc5ccccc5c4c21)OC(c1ccc(OC)cc1)(c1ccc(OC)cc1)C=C3` (stereo not drawn) [Example 3, 3,3-di(4-methoxyphenyl)-16-hydroxy-16-ethyl-16H-benzofuro [2",3":6',7']indeno [3',2':4,3]naphtho [1,2-b]pyran], in data set [1], the “ΔOD@ SATURATION” value is 0.21, the “ΔOD/MIN SENSITIVITY” value is recorded as 0.20 ΔOD/MIN and the “Bleach Rate (T1/2)” value was 48 s. Further, the “LAMBDA MAX (VISIBLE)” value in data set [2] was 580 nm.
